log2 fold change data for 22 targets are collected here from the supplement of paper PMC10849652.

Sequences of proteins named here, by UniProt entry; tags and fusion partners are left off. A change or cut given only in a name is not applied to a line headed by its entry.
UniProt Q92932: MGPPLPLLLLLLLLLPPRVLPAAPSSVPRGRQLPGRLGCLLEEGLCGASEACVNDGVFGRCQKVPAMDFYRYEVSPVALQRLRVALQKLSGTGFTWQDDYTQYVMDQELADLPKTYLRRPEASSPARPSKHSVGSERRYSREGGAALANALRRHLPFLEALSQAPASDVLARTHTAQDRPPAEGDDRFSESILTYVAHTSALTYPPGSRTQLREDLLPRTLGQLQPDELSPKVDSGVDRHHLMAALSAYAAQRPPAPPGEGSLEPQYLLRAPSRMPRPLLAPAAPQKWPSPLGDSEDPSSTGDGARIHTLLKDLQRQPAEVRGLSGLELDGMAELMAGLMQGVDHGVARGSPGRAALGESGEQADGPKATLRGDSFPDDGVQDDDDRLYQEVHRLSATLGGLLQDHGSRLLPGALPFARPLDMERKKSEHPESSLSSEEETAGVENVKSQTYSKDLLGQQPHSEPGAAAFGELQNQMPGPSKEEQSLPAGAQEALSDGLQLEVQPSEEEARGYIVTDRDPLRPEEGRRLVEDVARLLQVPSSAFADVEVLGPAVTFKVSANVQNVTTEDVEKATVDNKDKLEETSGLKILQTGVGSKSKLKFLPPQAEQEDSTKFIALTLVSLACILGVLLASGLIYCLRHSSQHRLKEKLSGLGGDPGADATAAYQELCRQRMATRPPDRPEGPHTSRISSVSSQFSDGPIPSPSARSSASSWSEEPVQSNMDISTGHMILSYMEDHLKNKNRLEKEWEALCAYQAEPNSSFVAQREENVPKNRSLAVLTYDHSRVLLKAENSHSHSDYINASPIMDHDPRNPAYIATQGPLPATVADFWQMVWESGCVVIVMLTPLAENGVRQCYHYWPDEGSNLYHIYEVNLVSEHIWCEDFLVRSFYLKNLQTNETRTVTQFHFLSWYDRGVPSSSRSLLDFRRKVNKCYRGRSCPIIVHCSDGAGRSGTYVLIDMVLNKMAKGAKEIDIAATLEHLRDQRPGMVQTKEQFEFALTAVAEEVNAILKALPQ
UniProt O95758: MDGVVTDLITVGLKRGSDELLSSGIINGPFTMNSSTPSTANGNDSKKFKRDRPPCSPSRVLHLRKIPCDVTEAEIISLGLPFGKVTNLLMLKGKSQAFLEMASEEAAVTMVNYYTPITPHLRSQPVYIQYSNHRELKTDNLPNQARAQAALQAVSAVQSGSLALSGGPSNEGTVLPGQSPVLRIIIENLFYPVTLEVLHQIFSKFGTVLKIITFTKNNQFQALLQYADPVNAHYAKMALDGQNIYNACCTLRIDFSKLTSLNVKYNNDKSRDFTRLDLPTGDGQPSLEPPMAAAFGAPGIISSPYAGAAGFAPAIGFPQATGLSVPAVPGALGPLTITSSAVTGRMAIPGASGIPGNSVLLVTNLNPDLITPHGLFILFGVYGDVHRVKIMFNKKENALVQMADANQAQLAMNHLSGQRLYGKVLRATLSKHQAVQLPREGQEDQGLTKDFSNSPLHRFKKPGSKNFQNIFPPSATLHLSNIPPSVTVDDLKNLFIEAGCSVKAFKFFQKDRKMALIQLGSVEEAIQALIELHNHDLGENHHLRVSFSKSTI
UniProt P07602: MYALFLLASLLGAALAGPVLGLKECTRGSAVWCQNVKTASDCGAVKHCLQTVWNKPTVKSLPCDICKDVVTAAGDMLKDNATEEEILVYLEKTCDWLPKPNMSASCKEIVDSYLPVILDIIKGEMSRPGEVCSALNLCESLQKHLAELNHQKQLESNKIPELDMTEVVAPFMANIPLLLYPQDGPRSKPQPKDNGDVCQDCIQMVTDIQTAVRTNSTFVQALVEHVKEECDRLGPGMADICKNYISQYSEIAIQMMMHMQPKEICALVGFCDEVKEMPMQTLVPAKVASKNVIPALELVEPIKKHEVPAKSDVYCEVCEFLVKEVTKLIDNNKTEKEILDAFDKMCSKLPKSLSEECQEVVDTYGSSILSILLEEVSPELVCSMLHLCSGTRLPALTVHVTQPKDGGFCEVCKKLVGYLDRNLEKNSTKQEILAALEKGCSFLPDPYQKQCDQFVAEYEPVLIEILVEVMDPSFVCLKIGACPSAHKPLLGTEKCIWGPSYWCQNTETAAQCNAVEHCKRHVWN
UniProt O75475: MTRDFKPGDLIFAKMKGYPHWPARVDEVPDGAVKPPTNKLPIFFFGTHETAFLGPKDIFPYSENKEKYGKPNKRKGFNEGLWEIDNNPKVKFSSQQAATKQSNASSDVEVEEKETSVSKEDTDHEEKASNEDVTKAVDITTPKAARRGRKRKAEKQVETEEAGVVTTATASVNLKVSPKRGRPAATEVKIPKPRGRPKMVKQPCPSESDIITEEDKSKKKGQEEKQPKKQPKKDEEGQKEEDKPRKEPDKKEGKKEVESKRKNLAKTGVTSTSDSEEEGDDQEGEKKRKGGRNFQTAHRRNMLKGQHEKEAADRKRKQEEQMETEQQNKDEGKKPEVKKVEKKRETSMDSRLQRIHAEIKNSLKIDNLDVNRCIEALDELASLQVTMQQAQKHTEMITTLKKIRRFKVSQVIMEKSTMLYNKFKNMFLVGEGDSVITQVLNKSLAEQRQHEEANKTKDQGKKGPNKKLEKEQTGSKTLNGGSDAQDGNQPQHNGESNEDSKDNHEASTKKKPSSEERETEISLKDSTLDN
UniProt Q9P2W1: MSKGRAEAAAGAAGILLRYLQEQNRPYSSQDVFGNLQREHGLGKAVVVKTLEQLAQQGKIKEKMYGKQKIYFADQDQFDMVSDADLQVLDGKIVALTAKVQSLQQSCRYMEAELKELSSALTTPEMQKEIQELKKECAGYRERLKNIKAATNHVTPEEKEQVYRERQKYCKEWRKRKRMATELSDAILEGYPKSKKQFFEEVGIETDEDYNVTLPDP
UniProt Q05397, whole entry, looked up: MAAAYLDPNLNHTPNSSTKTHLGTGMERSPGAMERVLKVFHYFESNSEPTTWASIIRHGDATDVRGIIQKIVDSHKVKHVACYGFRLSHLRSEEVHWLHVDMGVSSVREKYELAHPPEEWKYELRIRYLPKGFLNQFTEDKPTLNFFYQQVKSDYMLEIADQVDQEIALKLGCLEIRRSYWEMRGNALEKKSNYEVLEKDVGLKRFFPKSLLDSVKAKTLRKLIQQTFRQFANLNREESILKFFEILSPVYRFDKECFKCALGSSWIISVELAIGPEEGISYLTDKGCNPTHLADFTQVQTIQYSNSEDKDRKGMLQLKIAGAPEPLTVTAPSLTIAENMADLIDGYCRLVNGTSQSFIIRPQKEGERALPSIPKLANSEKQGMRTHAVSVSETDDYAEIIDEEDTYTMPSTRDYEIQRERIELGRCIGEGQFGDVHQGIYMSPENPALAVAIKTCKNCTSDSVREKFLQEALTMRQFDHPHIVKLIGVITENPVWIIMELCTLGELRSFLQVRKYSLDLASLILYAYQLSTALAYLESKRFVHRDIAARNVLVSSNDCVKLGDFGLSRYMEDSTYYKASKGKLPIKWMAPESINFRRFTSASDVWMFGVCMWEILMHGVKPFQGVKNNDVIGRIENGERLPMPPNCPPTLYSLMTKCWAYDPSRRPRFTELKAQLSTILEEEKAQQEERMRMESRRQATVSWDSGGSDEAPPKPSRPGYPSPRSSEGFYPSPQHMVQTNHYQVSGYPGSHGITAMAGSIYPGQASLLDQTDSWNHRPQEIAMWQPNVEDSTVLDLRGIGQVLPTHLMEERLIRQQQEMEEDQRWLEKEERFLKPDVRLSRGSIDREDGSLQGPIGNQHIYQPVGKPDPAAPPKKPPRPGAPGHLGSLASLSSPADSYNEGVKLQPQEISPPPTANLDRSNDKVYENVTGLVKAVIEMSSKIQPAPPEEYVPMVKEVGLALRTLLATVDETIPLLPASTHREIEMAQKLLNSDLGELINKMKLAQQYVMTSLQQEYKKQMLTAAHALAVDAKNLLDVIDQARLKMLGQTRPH
UniProt P20962: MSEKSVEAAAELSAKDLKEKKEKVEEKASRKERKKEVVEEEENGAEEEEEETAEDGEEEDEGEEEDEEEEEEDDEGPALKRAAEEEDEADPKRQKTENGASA
UniProt Q9ULZ3, whole entry, looked up: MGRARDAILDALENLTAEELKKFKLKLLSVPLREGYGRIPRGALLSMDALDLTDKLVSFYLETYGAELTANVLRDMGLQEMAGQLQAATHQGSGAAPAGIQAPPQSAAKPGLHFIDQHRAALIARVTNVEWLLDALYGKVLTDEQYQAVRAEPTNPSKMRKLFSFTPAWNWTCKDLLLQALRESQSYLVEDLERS
UniProt Q96PZ0: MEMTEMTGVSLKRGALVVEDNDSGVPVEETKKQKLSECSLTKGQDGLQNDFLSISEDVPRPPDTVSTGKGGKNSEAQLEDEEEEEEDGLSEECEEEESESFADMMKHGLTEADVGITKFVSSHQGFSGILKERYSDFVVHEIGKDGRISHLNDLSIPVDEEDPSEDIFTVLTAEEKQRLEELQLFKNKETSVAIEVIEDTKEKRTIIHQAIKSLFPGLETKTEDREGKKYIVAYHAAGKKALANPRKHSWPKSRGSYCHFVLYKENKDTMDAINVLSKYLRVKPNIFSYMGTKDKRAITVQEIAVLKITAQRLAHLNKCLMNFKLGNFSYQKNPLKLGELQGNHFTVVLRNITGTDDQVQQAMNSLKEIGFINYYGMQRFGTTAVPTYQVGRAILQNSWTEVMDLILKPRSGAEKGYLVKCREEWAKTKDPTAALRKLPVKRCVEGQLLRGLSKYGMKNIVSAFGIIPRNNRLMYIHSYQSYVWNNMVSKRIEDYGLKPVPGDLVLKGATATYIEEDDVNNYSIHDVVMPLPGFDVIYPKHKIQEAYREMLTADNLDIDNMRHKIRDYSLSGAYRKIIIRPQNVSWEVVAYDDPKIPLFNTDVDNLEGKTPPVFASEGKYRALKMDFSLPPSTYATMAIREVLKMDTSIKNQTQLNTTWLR
UniProt P28074: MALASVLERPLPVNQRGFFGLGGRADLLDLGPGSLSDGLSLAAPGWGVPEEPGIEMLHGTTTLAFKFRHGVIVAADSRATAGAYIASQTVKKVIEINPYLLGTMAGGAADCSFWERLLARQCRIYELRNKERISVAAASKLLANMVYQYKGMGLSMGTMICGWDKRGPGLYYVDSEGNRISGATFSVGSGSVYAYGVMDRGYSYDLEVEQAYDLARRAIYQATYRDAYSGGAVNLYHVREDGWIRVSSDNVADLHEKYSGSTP
UniProt O00487, whole entry, looked up: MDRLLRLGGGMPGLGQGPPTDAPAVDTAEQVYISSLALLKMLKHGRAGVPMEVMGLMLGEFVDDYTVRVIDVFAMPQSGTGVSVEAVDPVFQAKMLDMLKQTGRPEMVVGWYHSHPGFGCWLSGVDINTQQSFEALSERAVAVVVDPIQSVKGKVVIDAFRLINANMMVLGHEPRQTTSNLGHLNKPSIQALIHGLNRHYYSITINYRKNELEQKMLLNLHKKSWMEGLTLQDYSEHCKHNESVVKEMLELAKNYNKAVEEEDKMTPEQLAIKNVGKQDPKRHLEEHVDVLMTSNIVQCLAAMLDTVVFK
UniProt Q9H0K6: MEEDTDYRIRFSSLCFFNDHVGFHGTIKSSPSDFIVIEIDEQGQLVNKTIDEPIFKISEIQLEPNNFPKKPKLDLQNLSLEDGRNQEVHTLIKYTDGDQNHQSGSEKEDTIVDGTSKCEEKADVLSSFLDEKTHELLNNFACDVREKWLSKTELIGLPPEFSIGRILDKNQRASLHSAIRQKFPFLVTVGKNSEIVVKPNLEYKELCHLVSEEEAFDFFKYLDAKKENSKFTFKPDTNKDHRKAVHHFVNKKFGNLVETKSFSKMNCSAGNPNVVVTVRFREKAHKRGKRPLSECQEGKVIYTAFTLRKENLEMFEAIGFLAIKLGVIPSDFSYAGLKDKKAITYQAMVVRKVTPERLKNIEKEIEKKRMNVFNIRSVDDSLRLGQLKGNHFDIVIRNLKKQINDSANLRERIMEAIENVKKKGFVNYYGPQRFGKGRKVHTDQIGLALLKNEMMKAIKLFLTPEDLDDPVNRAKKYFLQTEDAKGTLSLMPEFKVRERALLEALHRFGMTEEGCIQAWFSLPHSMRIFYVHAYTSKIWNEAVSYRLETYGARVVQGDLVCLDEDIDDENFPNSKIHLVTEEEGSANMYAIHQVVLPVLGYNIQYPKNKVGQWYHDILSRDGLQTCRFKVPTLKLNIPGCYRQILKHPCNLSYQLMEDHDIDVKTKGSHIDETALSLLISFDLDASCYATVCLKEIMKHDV
UniProt P32322: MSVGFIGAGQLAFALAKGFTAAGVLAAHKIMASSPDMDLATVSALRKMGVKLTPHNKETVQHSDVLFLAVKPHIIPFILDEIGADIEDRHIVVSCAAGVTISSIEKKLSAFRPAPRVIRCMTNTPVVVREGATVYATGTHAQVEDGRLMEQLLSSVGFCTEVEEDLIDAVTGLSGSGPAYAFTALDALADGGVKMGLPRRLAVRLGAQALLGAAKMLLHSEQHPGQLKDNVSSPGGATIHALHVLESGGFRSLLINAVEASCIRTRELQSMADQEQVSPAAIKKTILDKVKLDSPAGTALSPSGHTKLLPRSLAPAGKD

This is one part of the list.

Compound in this experiment: c1cn2cc(-c3ccc4cn[nH]c4c3)nc(Nc3ccc(N4CCOCC4)cc3)c2n1 [entospletinib]
In words: log2 fold change, soluble protein after heating vs DMSO (PISA); higher = thermal stabilisation; K562 cells, 10 uM, 30 min; active = over 0.2 and 3.5 SD of the protein, either way, in both replicates (recomputed). An outline of the steps: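 Aliquots of K562 cells (2×10^6 cells/mL) treated with 10 μM compound for 30 min were heated for 3 min over 48°C-58°C. After pooling and extraction in PBS with 0.5% NP-40 at 4°C, soluble protein from a 21,000xg, 90 min spin was quantified by TMTpro 16plex LC-MS/MS with channel sums equalised. Thermal stability is expressed against control samples, from duplicates, as a log2 fold change.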
With PSMA7 isoform 2 (UniProt O14818), the log2 fold change was inactive: 0.114.

Turning to PTPRN2 isoform 3 (UniProt Q92932), the log2 fold change is inactive: -0.472.

PTPN11 isoform 1 (UniProt Q06124): the log2 fold change is inactive: -0.002.

As to PSMD10 (UniProt O75832), the log2 fold change was inactive: 0.

For the target PTPN1 (UniProt P18031), the log2 fold change is inactive: -0.008.

Take PTBP3 isoform 4 (UniProt O95758): the log2 fold change is inactive: -0.001.

As for PSAP isoform 3 (UniProt P07602), the log2 fold change is inactive: -0.002.

In the case of PSIP1 (UniProt O75475), the log2 fold change was inactive: 0.023.

Turning to PSMB2 (UniProt P49721), the log2 fold change is inactive: -0.011.

In the case of PSMC3IP (UniProt Q9P2W1), the log2 fold change was inactive: -0.136.

Turning to PSEN1 (UniProt P49768), the log2 fold change is inactive: 0.033.

PSME1 (UniProt Q06323): the log2 fold change was inactive: 0.008.

Turning to PTK2 (UniProt Q05397), the log2 fold change is inactive: 0.016.

As for PTMS (UniProt P20962), the log2 fold change was inactive: 0.015.

Consider PYCARD (UniProt Q9ULZ3), for which the log2 fold change was inactive: 0.017.

PUS7 isoform 2 (UniProt Q96PZ0): the log2 fold change is inactive: 0.041.

In the case of PSMB5 (UniProt P28074), the log2 fold change is inactive: -0.025.

For the target PSPH (UniProt P78330), the log2 fold change was inactive: -0.002.

With PSMD14 (UniProt O00487), the log2 fold change is inactive: -0.001.

On to PWP1 (UniProt Q13610), for which the log2 fold change is inactive: 0.149.

For the target PUS7L (UniProt Q9H0K6), the log2 fold change was inactive: 0.

For the target PYCR1 isoform 3 (UniProt P32322), the log2 fold change was inactive: 0.033.
